Measurements as given in patent US11065257B2, “Substituted pyrazoloazepin-4-ones and their use as phosphodiesterase inhibitors” (LEO Pharma A/S, priority 2016, dated 2021).
The structures given here were assigned with low confidence; some may be wrong.

Protein sequences, listed by entry. Tags and fused reporters are not part of them. Residues count along the entry.
UniProt Q08499, 380-740 limits assumed: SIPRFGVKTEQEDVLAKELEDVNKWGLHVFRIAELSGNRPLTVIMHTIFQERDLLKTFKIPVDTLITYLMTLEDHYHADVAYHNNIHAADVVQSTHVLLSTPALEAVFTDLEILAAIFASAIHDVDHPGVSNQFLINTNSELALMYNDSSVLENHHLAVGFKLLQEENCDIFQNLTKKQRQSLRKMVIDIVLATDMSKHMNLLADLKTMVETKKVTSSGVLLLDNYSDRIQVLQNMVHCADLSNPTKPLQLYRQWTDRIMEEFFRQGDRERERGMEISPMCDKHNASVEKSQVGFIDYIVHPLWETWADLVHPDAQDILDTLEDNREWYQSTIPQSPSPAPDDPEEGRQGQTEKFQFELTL

Target: human PDE4D catalytic domain (Homo sapiens, UniProt Q08499)
Assay: PDE4 Assay
Conditions: read-out: PDE4 Potency Range; human PDE4D catalytic domain (S380-L740), TR-FRET with FAM-cAMP; expressed as a range of IC50
Procedure: The human PDE4D catalytic domain (UniProt no. Q08499 [S380-L740]) was incubated with a mixture of non-labelled cAMP (cyclic adenosine monophosphate) and fluorescein amidite (FAM) conjugated cAMP and titrated test or reference compound. Following brief incubation the enzymatic reaction was stopped by addition of binding buffer containing nanoparticles with immobilized trivalent metal ions capable of binding 1) AMP phospho groups and 2) terbium (Tb) donor fluorophores. Subsequent excitation of the Tb donor triggers time-resolved FRET to adjacent FAM acceptor molecules resulting in light emission. In the presence of a PDE4 inhibitor, AMP generation was reduced resulting in a lower fluorescence signal. The cAMP phosphodiester is not bound by the detection system.
The results were calculated as the molar concentrations resulting in 50% inhibition of the substrate cleavage compared to controls samples, and are expressed as a range of IC50 (nM).

Structure (SMILES): CCc1nn(CCCOC(=O)C2CCN(C(=O)N(C)C)CC2)c2c1C(=O)NCC1(CCOCC1)C2
- IC50: 100 to 500 nM
